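Plate-reader measure of the Venus reporter marking one vaccinia stage in infected cells (the cell line is not named here); read time unknown.
The test concentration is not given here.
Percent change in Venus reporter signal; lower (more negative) values mean stronger inhibition of that viral stage.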

Values are in %.
The controls that fix the scale are not given here.
Common to all entries: measured here: Venus reporter, other viral stage.
This is a side read-out of the assay, for part of the compounds, not drawn at random.

Compound	activity change (Venus) (%)
O=S(=O)(c1ccccc1F)N1CCCCN2[C@H](CO)[C@H](c3ccc(-c4ccccc4)cc3)[C@H]2C1	-38.91
C[C@H]1CCCCO[C@@H](CN(C)C(=O)Nc2ccc(F)cc2)[C@@H](C)CN([C@@H](C)CO)C(=O)c2cc(NS(=O)(=O)c3ccc(F)cc3)ccc2O1	-28.16
C[C@@H]1CN([C@@H](C)CO)C(=O)c2cccc(NC(=O)c3nc4ccccc4s3)c2O[C@@H]1CN(C)S(=O)(=O)c1ccc(F)cc1	-32.56
O=C(Cc1cccnc1)N1CCCCN2[C@H](CO)[C@@H](c3ccc(C#CC4CCCC4)cc3)[C@H]2C1	-31.83
O=C(C1CC1)N1CCCCN2[C@H](CO)[C@H](c3ccc(C#CC4CCCC4)cc3)[C@H]2C1	-55.3
COc1ccc([Si](C)(C)[C@@H]2[C@@H](CCO)O[C@]3(C(=O)N(Cc4cccc(N5CCOC5=O)c4)c4ccccc43)[C@H]2C)cc1	-53.13
C[C@@H]1CN([C@@H](C)CO)S(=O)(=O)c2ccc(C#CCC3CCCC3)cc2O[C@@H]1CN(C)C(=O)CC1CC1	-50.52
C[C@@H]1CN([C@H](C)CO)C(=O)c2cc(NS(=O)(=O)c3ccc(F)cc3)ccc2O[C@@H](C)CCCCO[C@H]1CN(C)S(=O)(=O)c1ccccc1	-30.24
Cc1ccc(S(=O)(=O)Nc2ccc3c(c2)C(=O)N([C@H](C)CO)C[C@@H](C)[C@H](CN(C)Cc2ccc(Cl)c(Cl)c2)OCCCC[C@H](C)O3)cc1	-62.76
Cc1ccc(S(=O)(=O)Nc2ccc3c(c2)C(=O)N([C@H](C)CO)C[C@@H](C)[C@@H](CN(C)Cc2ccc(Cl)c(Cl)c2)O3)cc1	-24.6
COc1ccc(CN(C)C[C@@H]2Oc3c(NC(=O)c4ccc(-c5nccs5)cc4)cccc3C(=O)N([C@H](C)CO)C[C@H]2C)cc1	-40.11
N#Cc1ccc(-c2ccc(C3[C@@H]4CN(C(=O)C5CC5)C[C@H]3N4)cc2)cc1 (stereo partly specified)	-89.45
CO[C@H](CN(C)S(=O)(=O)c1cccc(Cl)c1)[C@H](C)CN([C@@H](C)CO)S(=O)(=O)c1ccc(Cl)cc1	-23.73
Cc1noc(C)c1S(=O)(=O)N(C)C[C@H]1OCc2ccccc2-c2c(n(C)c3ccccc23)C(=O)N([C@H](C)CO)C[C@@H]1C	-29.35
N#Cc1ccc(-c2ccc3c(c2)[C@H]2[C@H](CCN2S(=O)(=O)c2cccc(F)c2)[C@@H](CO)N3)cc1	-48.49
Cc1cc(C(=O)Nc2cccc3c2O[C@@H](CN(C)Cc2ccc(Oc4ccccc4)cc2)[C@H](C)CN([C@@H](C)CO)C3=O)n(C)n1	-43.95
Cc1ccc(S(=O)(=O)Nc2ccc3c(c2)C(=O)N([C@@H](C)CO)C[C@H](C)[C@@H](CN(C)C(=O)Nc2ccccc2)OCCCC[C@H](C)O3)cc1	-25.88
C[C@@H]1CN([C@H](C)CO)C(=O)c2cc(-c3ccccc3F)cnc2O[C@H]1CN(C)Cc1cccc(F)c1	-30.2
COc1ccc(C#Cc2ccc3c(c2)O[C@@H](CN(C)C(=O)c2ccccn2)[C@H](C)CN([C@H](C)CO)S3(=O)=O)cc1	-42.9
O=C(C[C@H]1CC[C@H]2[C@@H](COC[C@@H](O)CN2Cc2cccc(C(F)(F)F)c2)O1)NCc1ccc(Cl)cc1	-36.11
C[C@@H]1CN([C@H](C)CO)C(=O)Cc2cc(NS(=O)(=O)c3cccs3)ccc2O[C@H]1CN(C)Cc1ccc(Cl)c(Cl)c1	-44.29
CCCN(C)C[C@H]1Oc2ncc(C#Cc3ccccc3OC)cc2C(=O)N([C@H](C)CO)C[C@H]1C	-23.41
COc1ccccc1S(=O)(=O)N1CC[C@@H]2[C@H](CO)Nc3ccc(-c4ccc(F)cc4)cc3[C@@H]21	-55.85
CC(C)CC#Cc1ccc([C@@H]2[C@H]3CN(C(=O)Cc4ccccc4)CC(=O)N3[C@H]2CO)cc1	-52.75
O=C(C[C@@H]1C[C@H]2c3cc(NC(=O)Nc4ccc(C(F)(F)F)cc4)ccc3O[C@H]2[C@H](CO)O1)NCc1ccc2c(c1)OCO2	-66.98
CC(C)CC#Cc1ccc2c(c1)O[C@H](CN(C)C(=O)CN(C)C)[C@H](C)CN([C@@H](C)CO)S2(=O)=O	-29.42
C/C=C/c1ccc([C@@H]2[C@H](CO)N(C(=O)CN(C)C)C23CN(C(=O)C2CCCC2)C3)cc1	-47.33
C[C@@H]1CN([C@H](C)CO)C(=O)c2cccc(NC(=O)Nc3ccc(C(F)(F)F)cc3)c2O[C@@H]1CN(C)C(=O)NC1CCCCC1	-19.57
CC(C)C#Cc1ccc2c(c1)O[C@H](CN(C)CC1CCOCC1)[C@@H](C)CN([C@H](C)CO)S2(=O)=O	-34.93
C[C@H](CO)N1C[C@H](C)[C@H](CN(C)Cc2ccc(C(F)(F)F)cc2)OCCCC[C@H](C)Oc2ccc(NS(=O)(=O)c3ccccc3)cc2C1=O	-65.51

3 of the entries, repeated:

{"compound": "Cc1noc(C)c1S(=O)(=O)N(C)C[C@H]1OCc2ccccc2-c2c(n(C)c3ccccc23)C(=O)N([C@H](C)CO)C[C@@H]1C", "activity change (Venus) (%)": "-29.35"}
{"compound": "C[C@@H]1CN([C@H](C)CO)C(=O)c2cc(NS(=O)(=O)c3ccc(F)cc3)ccc2O[C@@H](C)CCCCO[C@H]1CN(C)S(=O)(=O)c1ccccc1", "activity change (Venus) (%)": "-30.24"}
{"compound": "C/C=C/c1ccc([C@@H]2[C@H](CO)N(C(=O)CN(C)C)C23CN(C(=O)C2CCCC2)C3)cc1", "activity change (Venus) (%)": "-47.33"}

From PubChem BioAssay record AID1053133 (Broad Institute, 2014).